Consider 1 molecule from patent US20230220068A1 (CODIAK BIOSCIENCES, published 2023).

This assay concerns the target SIRPα (as used in the Octet analysis of FIGS. 3A-3C). Nature of the assay: Octet, exosomes on SIRPα, all steps aligned by step baseline.

Results are given in words; binding and its absence hold for the method and conditions named.

B1: PrX (protein, human, UniProt Q9P2B2 26-879, looked up)
scaffold on exosomes: VPTATLVRVVGTELVIPCNVSDYDGPSEQNFDWSFSSLGSSFVELASTWEVGFPAQLYQERLQRGEILLRRTANDAVELHIKNVQPSDQGHYKCSTPSTDATVQGNYEDTVQVKVLADSLHVGPSARPPPSLSLREGEPFELRCTAASASPLHTHLALLWEVHRGPARRSVLALTHEGRFHPGLGYEQRYHSGDVRLDTVGSDAYRLSVSRALSADQGSYRCIVSEWIAEQGNWQEIQEKAVEVATVVIQPSVLRAAVPKNVSVAEGKELDLTCNITTDRADDVRPEVTWSFSRMPDSTLPGSRVLARLDRDSLVHSSPHVALSHVDARSYHLLVRDVSKENSGYYYCHVSLWAPGHNRSWHKVAEAVSSPAGVGVTWLEPDYQVYLNASKVPGFADDPTELACRVVDTKSGEANVRFTVSWYYRMNRRSDNVVTSELLAVMDGDWTLKYGERSKQRAQDGDFIFSKEHTDTFNFRIQRTTEEDRGNYYCVVSAWTKQRNNSWVKSKDVFSKPVNIFWALEDSVLVVKARQPKPFFAAGNTFEMTCKVSSKNIKSPRYSVLIMAEKPVGDLSSPNETKYIISLDQDSVVKLENWTDASRVDGVVLEKVQEDEFRYRMYQTQVSDAGLYRCMVTAWSPVRGSLWREAATSLSNPIEIDFQTSGPIFNASVHSDTPSVIRGDLIKLFCIITVEGAALDPDDMAFDVSWFAVHSFGLDKAPVLLSSLDRKGIVTTSRRDWKSDLSLERVSVLEFLLQVHGSEDQDFGNYYCSVTPWVKSPTGSWQKEAEIHSKPVFITVKMDVLNAFKYPLLIGVGLSTVIGLLSCLIGYCSSHWCCKKEVQETRRERRRLMSMEMD
Turning to B1, the binding entry was “no binding”.
